Reference: the supplement of paper PMC4604168 (melanoma cell lines)
This is one part of the list. Single values are uncertain, as repeats are few or missing.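 Cells were imaged in 1,536-well plates, and nuclei stained with an antibody against cleaved PARP were counted against all DNA-stained nuclei to give the apoptosis fraction. Screening doses were chosen to leave most cells alive, and resting and induced cleaved-PARP levels differ strongly between cell lines.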

What was measured:
Assay in all cases: cleaved PARP positive nuclei fraction relative to DMSO control; melanoma cells; higher = more apoptosis
Settings in all cases: library dose: low library concentration; 72 h
[1] = system: 501Mel
[2] = system: A101D
[3] = system: A2058
[4] = system: A375
[5] = system: C32
[6] = system: CBRC008 (line from a melanoma biopsy)
[7] = system: CBRC014 (line from a melanoma biopsy)
[8] = system: CBRC016 (line from a melanoma biopsy)
[9] = system: CBRC017 (line from a melanoma biopsy)

Row | SMILES | cleaved PARP positive nuclei fraction [1] [%] | cleaved PARP positive nuclei fraction [2] [%] | cleaved PARP positive nuclei fraction [3] [%] | cleaved PARP positive nuclei fraction [4] [%] | cleaved PARP positive nuclei fraction [5] [%] | cleaved PARP positive nuclei fraction [6] [%] | cleaved PARP positive nuclei fraction [7] [%] | cleaved PARP positive nuclei fraction [8] [%] | cleaved PARP positive nuclei fraction [9] [%]
1 | CC1(C)CCC(c2ccc(Cl)cc2)=C(CN2CCN(c3ccc(C(=O)NS(=O)(=O)c4ccc(N[C@H](CCN5CCOCC5)CSc5ccccc5)c(S(=O)(=O)C(F)(F)F)c4)cc3)CC2)C1 + C[C@]1(c2nc3c(C(N)=O)cccc3[nH]2)CCCN1 [Veliparib] (first compound 0.4 µM, partner dose 1.4 µM) | 78.8 | 91.1 | 128 | 521 | 154 | 426 | 747 | 652 | 405
2 | CN(c1ncccc1CNc1nc(Nc2ccc3c(c2)CC(=O)N3)ncc1C(F)(F)F)S(C)(=O)=O + CNC(=O)c1cc(Oc2ccc(NC(=O)Nc3ccc(Cl)c(C(F)(F)F)c3)cc2)ccn1 [sorafenib] (first compound 0.08 µM, partner dose 0.4 µM) | 64.3 | 101 | 230 | 238 | 112 | 28.2 | 102 | 146 | 98.4
3 | Cn1sc(=O)n(Cc2ccccc2)c1=O + CNC(=O)c1cc(Oc2ccc(NC(=O)Nc3ccc(Cl)c(C(F)(F)F)c3)cc2)ccn1 [sorafenib] (first compound 0.4 µM, partner dose 0.4 µM) | 72.7 | 87.7 | 156 | 130 | 69.7 | 72.4 | 100 | 90.7 | 118
4 | CCN(CC)CCNC(=O)c1c(C)[nH]c(/C=C2\C(=O)Nc3ccc(F)cc32)c1C [sunitinib] + CN1CCN(c2ccc3nc(-c4c(N)c5c(F)cccc5[nH]c4=O)[nH]c3c2)CC1 [Dovitinib] (first compound 0.4 µM, partner dose 0.1 µM) | 186 | 113 | 112 | 156 | 90 | 60.4 | 99.9 | 110 | 127
5 | NC(=O)c1ccc(N(C(N)=O)c2c(F)cccc2F)nc1-c1ccc(F)cc1F + C=C(c1ccc(C(=O)O)cc1)c1cc2c(cc1C)C(C)(C)CCC2(C)C [Bexarotene] (first compound 0.4 µM, partner dose 2 µM) | 102 | 144 | 168 | 257 | 64.7 | 139 | 81.1 | 89.1 | 114
6 | Cn1cnc2c(F)c(Nc3ccc(Br)cc3Cl)c(C(=O)NOCCO)cc21 [selumetinib] + COc1ccc(Cl)c(Nc2nc3ccccc3nc2NS(=O)(=O)c2cccc(NC(=O)C(C)(C)N)c2)c1 [XL147] (first compound 0.015 µM, partner dose 0.8 µM) | 485 | 99.1 | 252 | 148 | 112 | 135 | 168 | 185 | 171
7 | CCN(CC)CCNC(=O)c1c(C)[nH]c(/C=C2\C(=O)Nc3ccc(F)cc32)c1C [sunitinib] + O=C(O)c1ccc2c(c1)nc(Nc1cccc(Cl)c1)c1ccncc12 [CX4945] (first compound 0.4 µM, partner dose 0.4 µM) | 95.8 | 126 | 295 | 286 | 193 | 127 | 108 | 195 | 112
8 | CCCCCCCCc1ccc(CCC(N)(CO)CO)cc1 [fingolimod] + CNC(=O)c1cc(Oc2ccc(NC(=O)Nc3ccc(Cl)c(C(F)(F)F)c3)cc2)ccn1 [sorafenib] (first compound 2 µM, partner dose 0.4 µM) | 171 | 190 | 37.5 | 235 | 80.3 | 51.9 | 97.5 | 65.1 | 140
9 | CN(c1ncccc1CNc1nc(Nc2ccc3c(c2)CC(=O)N3)ncc1C(F)(F)F)S(C)(=O)=O + OCc1c[nH]c2ccccc12 [Indole-3-carbinol] (first compound 0.08 µM, partner dose 0.8 µM) | 122 | 168 | 304 | 220 | 188 | 88.4 | 79.6 | 62.5 | 92.9
10 | CCCCCCCCc1ccc(CCC(N)(CO)CO)cc1 [fingolimod] + C[C@]1(c2nc3c(C(N)=O)cccc3[nH]2)CCCN1 [Veliparib] (first compound 2 µM, partner dose 1.4 µM) | 265 | 105 | 132 | 766 | 89.1 | 48.4 | 109 | 113 | 104
11 | COc1ccc(C2=N[C@@H](c3ccc(Cl)cc3)[C@@H](c3ccc(Cl)cc3)N2C(=O)N2CCNC(=O)C2)c(OC(C)C)c1 [Nutlin-3] + Nc1cccc2c1CN(C1CCC(=O)NC1=O)C2=O [lenalidomide] (first compound 0.1 µM, partner dose 1 µM) | 131 | 287 | 70.3 | 85.3 | 171 | 117 | 95 | 121 | 139
12 | CN(c1ncccc1CNc1nc(Nc2ccc3c(c2)CC(=O)N3)ncc1C(F)(F)F)S(C)(=O)=O + Cc1cc(Nc2cc(N3CCN(C)CC3)nc(/C=C/c3ccccc3)n2)n[nH]1 [ENMD2076] (first compound 0.08 µM, partner dose 0.04 µM) | 85 | 51.8 | 113 | 28.7 | 440 | 33.2 | 96.9 | 147 | 94
13 | CCCCCCCCc1ccc(CCC(N)(CO)CO)cc1 [fingolimod] + CN1CCN(c2ccc3nc(-c4c(N)c5c(F)cccc5[nH]c4=O)[nH]c3c2)CC1 [Dovitinib] (first compound 2 µM, partner dose 0.1 µM) | 1730 | 46.8 | 87.8 | 197 | 79.9 | 50.2 | 106 | 83 | 125
14 | NC1(c2ccc(-c3nc4ccn5c(=O)[nH]nc5c4cc3-c3ccccc3)cc2)CCC1 + Cc1nc(Nc2ncc(C(=O)Nc3c(C)cccc3Cl)s2)cc(N2CCN(CCO)CC2)n1 [dasatanib] (first compound 0.4 µM, partner dose 0.004 µM) | 86.6 | 423 | 33.1 | 288 | 119 | 131 | 89.9 | 127 | 84.9
15 | CC(=O)O[C@@]12CO[C@@H]1C[C@H](O)[C@@]1(C)C(=O)[C@H](O)C3=C(C)[C@@H](OC(=O)[C@H](O)[C@@H](NC(=O)OC(C)(C)C)c4ccccc4)C[C@@](O)([C@@H](OC(=O)c4ccccc4)[C@H]21)C3(C)C [Docetaxel] + Clc1ccc(Nc2nnc(Cc3ccncc3)c3ccccc23)cc1 [vatalanib] (first compound 0.0001 µM, partner dose 2 µM) | 146 | 113 | 2130 | 1420 | 90.3 | 402 | 198 | 63.5 | 241
16 | C[C@@H](N)c1ccc(C(=O)Nc2ccnc3[nH]ccc23)cc1 + Cc1nc(Nc2ncc(C(=O)Nc3c(C)cccc3Cl)s2)cc(N2CCN(CCO)CC2)n1 [dasatanib] (first compound 0.4 µM, partner dose 0.004 µM) | 104 | 266 | 115 | 258 | 101 | 106 | 106 | 81.9 | 162
17 | Cn1sc(=O)n(Cc2ccccc2)c1=O + CN1CCN(c2ccc3nc(-c4c(N)c5c(F)cccc5[nH]c4=O)[nH]c3c2)CC1 [Dovitinib] (first compound 0.4 µM, partner dose 0.1 µM) | 150 | 120 | 76 | 227 | 143 | 52.5 | 69.7 | 75.2 | 90.3
18 | CCN(CC)CCNC(=O)c1c(C)[nH]c(/C=C2\C(=O)Nc3ccc(F)cc32)c1C [sunitinib] + C#Cc1cccc(Nc2ncnc3cc(OCCOC)c(OCCOC)cc23)c1 [erlotinib] (first compound 0.4 µM, partner dose 0.8 µM) | 153 | 371 | 244 | 223 | 77.7 | 236 | 105 | 195 | 168
19 | Cn1sc(=O)n(Cc2ccccc2)c1=O + O=C(O)c1ccc2c(c1)nc(Nc1cccc(Cl)c1)c1ccncc12 [CX4945] (first compound 0.4 µM, partner dose 0.4 µM) | 63.9 | 214 | 340 | 89.7 | 75.1 | 33.3 | 82.2 | 81.7 | 114
20 | CS(=O)(=O)c1ccc(C(=O)Nc2ccc(Cl)c(-c3ccccn3)c2)c(Cl)c1 [vismodegib] + Cc1nc(Nc2ncc(C(=O)Nc3c(C)cccc3Cl)s2)cc(N2CCN(CCO)CC2)n1 [dasatanib] (first compound 1 µM, partner dose 0.004 µM) | 89.7 | 33.7 | 84.7 | 223 | 86.4 | 54.7 | 128 | 97.8 | 78.8
21 | CCCCCCCCc1ccc(CCC(N)(CO)CO)cc1 [fingolimod] + CS(=O)(=O)CCNCc1ccc(-c2ccc3ncnc(Nc4ccc(OCc5cccc(F)c5)c(Cl)c4)c3c2)o1 [lapatinib] (first compound 2 µM, partner dose 0.8 µM) | 138 | 99 | 67 | 90.6 | 249 | 160 | 100 | 39.8 | 89.6

Single records, as listed above. Values in the order: cleaved PARP positive nuclei fraction [1] [%]	cleaved PARP positive nuclei fraction [2] [%]	cleaved PARP positive nuclei fraction [3] [%]	cleaved PARP positive nuclei fraction [4] [%]	cleaved PARP positive nuclei fraction [5] [%]	cleaved PARP positive nuclei fraction [6] [%]	cleaved PARP positive nuclei fraction [7] [%]	cleaved PARP positive nuclei fraction [8] [%]	cleaved PARP positive nuclei fraction [9] [%]
CS(=O)(=O)c1ccc(C(=O)Nc2ccc(Cl)c(-c3ccccn3)c2)c(Cl)c1 [vismodegib] + Cc1nc(Nc2ncc(C(=O)Nc3c(C)cccc3Cl)s2)cc(N2CCN(CCO)CC2)n1 [dasatanib] (first compound 1 µM, partner dose 0.004 µM) in the list: 89.7	33.7	84.7	223	86.4	54.7	128	97.8	78.8
CCN(CC)CCNC(=O)c1c(C)[nH]c(/C=C2\C(=O)Nc3ccc(F)cc32)c1C [sunitinib] + CN1CCN(c2ccc3nc(-c4c(N)c5c(F)cccc5[nH]c4=O)[nH]c3c2)CC1 [Dovitinib] (first compound 0.4 µM, partner dose 0.1 µM) in the list: 186	113	112	156	90	60.4	99.9	110	127
